These are yes or no findings as the source states them, for the method shown. Binding seen in cells or lysates may run through a third protein. A yes stands for co-enrichment or nearness to the bait. Other partners may have been found. Tags and fused reporters may be left off the sequences shown.
Molecular target: T1, 3xFLAG-MINA R125G/K126G (NoLS mutant) (UniProt Q8IUF8)
T1 sequence: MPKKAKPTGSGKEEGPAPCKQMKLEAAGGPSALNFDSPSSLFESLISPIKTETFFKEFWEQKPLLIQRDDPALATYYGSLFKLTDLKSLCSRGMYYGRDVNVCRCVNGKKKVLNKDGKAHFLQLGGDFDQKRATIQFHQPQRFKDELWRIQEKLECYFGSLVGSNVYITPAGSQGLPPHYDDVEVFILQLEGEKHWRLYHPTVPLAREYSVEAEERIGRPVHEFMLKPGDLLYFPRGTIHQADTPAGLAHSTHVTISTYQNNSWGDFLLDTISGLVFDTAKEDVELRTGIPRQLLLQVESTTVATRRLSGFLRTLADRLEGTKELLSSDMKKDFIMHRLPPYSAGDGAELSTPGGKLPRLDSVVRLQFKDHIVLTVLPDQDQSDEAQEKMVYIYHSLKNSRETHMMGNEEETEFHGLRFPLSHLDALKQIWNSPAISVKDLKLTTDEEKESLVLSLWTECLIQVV
Test: affinity purification with mass spectrometry

B1: endogenous MPP6 (membrane palmitoylated protein 6) (protein, UniProt Q9NZW5 1-540)
chain: MQQVLENLTELPSSTGAEEIDLIFLKGIMENPIVKSLAKAHERLEDSKLEAVSDNNLELVNEILEDITPLINVDENVAELVGILKEPHFQSLLEAHDIVASKCYDSPPSSPEMNNSSINNQLLPVDAIRILGIHKRAGEPLGVTFRVENNDLVIARILHGGMIDRQGLLHVGDIIKEVNGHEVGNNPKELQELLKNISGSVTLKILPSYRDTITPQQVFVKCHFDYNPYNDNLIPCKEAGLKFSKGEILQIVNREDPNWWQASHVKEGGSAGLIPSQFLEEKRKAFVRRDWDNSGPFCGTISSKKKKKMMYLTTRNAEFDRHEIQIYEEVAKMPPFQRKTLVLIGAQGVGRRSLKNRFIVLNPTRFGTTVPFTSRKPREDEKDGQAYKFVSRSEMEADIKAGKYLEHGEYEGNLYGTKIDSILEVVQTGRTCILDVNPQALKVLRTSEFMPYVVFIAAPELETLRAMHKAVVDAGITTKLLTDSDLKKTVDESARIQRAYNHYFDLIIINDNLDKAFEKLQTAIEKLRMEPQWVPISWVY
**Q.** How did the binding turn out when B1 was run?
**A.** binds

Source: doi:10.1101/2023.03.15.532818
